# Values of other authors, collected in patent publication US4499094A, “Derivatives of arene and hetero-arene carboxamides and their use as medicaments” (Pharmuka Laboratoires, priority 1982, dated 1985).
# Tested on: binding sites of (^3 H) diazepam in the brain
# Conditions: rank order; cited from earlier work
compound,measurement,value
CN1C(=O)CN=C(c2ccccc2)c2cc(Cl)ccc21 [diazepam],"classification by decreasing affinity, ""cerebral"" type",clonazepan>diazepam>Ro-5-4864
